Laboratory results from patent US12419873B2, “Use of JAK inhibitors in preparation of drugs for treating JAK kinase-related diseases” (ZHUHAI UNITED LABORATORIES CO., LTD., priority 2020, dated 2025).

Test: Pharmacokinetic (PK) test in mice
Type: in vivo, mice (C57BL/6)
Conditions: mouse, plasma; male C57BL/6 mice; tail vein 2 mg/kg, oral 15 mg/kg

N#CC1(C(=O)N2CC3(CCC(c4cccc5nc(NC(=O)C6CC6)nn45)CC3)C2)CC1 [Compound 1-11]
half-life: 2.99 h
